Measurements: article PMC7826336
No constants are given. Whether binding was seen depends on the method and setting. Binding calls can cover weak binding; strength is not graded here.

The chains behind the UniProt entries cited, without tags or fusion partners. Where a name states a change or a piece, a line headed by the entry shows the natural chain unless it says otherwise.
UniProt P03952: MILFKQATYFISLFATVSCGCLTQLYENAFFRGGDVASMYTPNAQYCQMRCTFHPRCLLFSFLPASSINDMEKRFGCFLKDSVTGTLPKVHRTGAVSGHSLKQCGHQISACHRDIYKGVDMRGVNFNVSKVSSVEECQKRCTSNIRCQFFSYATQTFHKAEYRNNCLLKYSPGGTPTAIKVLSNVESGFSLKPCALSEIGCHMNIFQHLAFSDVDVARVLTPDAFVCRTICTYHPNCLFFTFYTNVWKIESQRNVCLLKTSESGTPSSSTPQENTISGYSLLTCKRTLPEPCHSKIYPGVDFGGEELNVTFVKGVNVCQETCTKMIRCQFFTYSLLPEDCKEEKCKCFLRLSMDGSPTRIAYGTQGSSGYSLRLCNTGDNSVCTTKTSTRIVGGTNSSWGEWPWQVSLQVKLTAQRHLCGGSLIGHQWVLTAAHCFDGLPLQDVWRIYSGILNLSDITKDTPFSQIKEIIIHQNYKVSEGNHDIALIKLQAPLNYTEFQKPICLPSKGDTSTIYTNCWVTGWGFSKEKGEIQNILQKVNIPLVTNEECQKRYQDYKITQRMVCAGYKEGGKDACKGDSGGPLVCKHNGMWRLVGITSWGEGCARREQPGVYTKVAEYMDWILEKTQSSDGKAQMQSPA
UniProt P00740: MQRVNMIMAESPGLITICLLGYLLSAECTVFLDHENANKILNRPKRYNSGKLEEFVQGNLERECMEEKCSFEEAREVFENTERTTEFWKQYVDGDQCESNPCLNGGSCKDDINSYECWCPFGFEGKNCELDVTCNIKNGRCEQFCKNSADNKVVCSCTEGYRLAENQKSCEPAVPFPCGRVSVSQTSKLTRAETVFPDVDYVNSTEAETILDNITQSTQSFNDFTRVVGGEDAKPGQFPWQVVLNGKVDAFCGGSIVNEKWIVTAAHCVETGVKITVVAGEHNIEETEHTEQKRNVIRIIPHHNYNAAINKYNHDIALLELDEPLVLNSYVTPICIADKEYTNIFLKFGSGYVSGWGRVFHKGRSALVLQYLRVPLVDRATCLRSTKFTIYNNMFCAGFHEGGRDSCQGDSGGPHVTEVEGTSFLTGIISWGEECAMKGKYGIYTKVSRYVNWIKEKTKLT

Biological target: kallikrein (PKa) (UniProt P03952)
Test: SPR; as a1, but analyte (FIX or FIXa, 250 nM) preincubated in one vessel with 250 nM HK before injection over immobilised PK or PKa; signal compared with HK alone; n = 1; both purified

In the case of Factor IX (FIX) (from UniProt P00740), the binding is reported as “binds”.
